Measurements published in patent publication US20170128428A1 (priority 2014, published 2017).
Like-named read-outs stand apart in the source and are kept apart here.

Experiments:
[1] = system: oxaliplatin-induced neuropathy; conditions: 5 mg/kg 30 minutes before the test, FIG. 5
[2] = system: oxaliplatin-induced neuropathy; conditions: group O-D
[3] = system: oxaliplatin-induced neuropathy
[4] = single 5 mg/kg oral dose on day 31
[5] = single 5 mg/kg oral dose on day 31, group O-D

## COc1cc2c(cc1OC)C(=O)C(CC1CCN(Cc3ccccc3)CC1)C2 (racemic) [donepezil]
[1]; day 31, oxaliplatin-treated rats (group O-D)
  anxiety level (social interaction time): anxiety level equivalent to that of the Sham group and significantly lower than that of group O
[1]; day 31, rats not treated with oxaliplatin (group D)
  anxiety level (social interaction time): anxiety level similar to those of the Sham group, the difference not being significant
[2]; preventive: 5 mg/kg orally twice per day, day 14 to day 28, with chronic oxaliplatin, FIG. 4
  pain threshold, cold stimulation, vs group O: significantly higher pain threshold than animals treated using oxaliplatin alone
[2]; [4]
  time after administration from which cold allodynia is decreased: 30 min
  time after administration up to which cold allodynia is decreased: up to 120 minutes
[2]; single 5 mg/kg oral dose on day 31 after chronic oxaliplatin, FIG. 2
  tolerance for cold / cold allodynia (tail withdrawal): increase their tolerance for cold
[3]; preventive: 5 mg/kg orally twice per day, day 14 to day 28, with chronic oxaliplatin, group O-D, FIG. 3
  pain threshold, mechanical stimulation, vs group O: significantly higher pain threshold than animals treated using oxaliplatin alone
[3]; [5]
  time after administration from which paw withdrawal threshold is improved: 30 min
  time after administration up to which improvement of paw withdrawal threshold lasts: up to 60 min.
[3]; single 5 mg/kg oral dose on day 31 after chronic oxaliplatin, group O-D vs group O, FIG. 1
  paw withdrawal threshold (static mechanical allodynia): significant improvement in the paw withdrawal threshold
